Test: FET (thin-film transistor) device fabrication and measurements
Details: top-contact TFT on Si/SiO2, ambient atmosphere; for Ion:Ioff, Spin-Coating / Mobility, Spin-Coating: spin-coated film; for Mobility, Spin-Coating / Mobility, Vapor Deposition: saturation regime; for Ion:Ioff, Vapor Deposition / Mobility, Vapor Deposition: vacuum vapor-deposited film

Row | Compound | Ion:Ioff, Spin-Coating | Mobility, Spin-Coating | Ion:Ioff, Vapor Deposition | Mobility, Vapor Deposition
1 | CCCCCC(C)N1C(=O)c2ccc3c4c(C#N)cc5c6c(ccc(c7c(C#N)cc(c2c37)C1=O)c64)C(=O)N(C(C)CCCCC)C5=O (centres unmarked) [PDI1MH-CN2, N,N′-bis(1-methylhexyl)-1,7-dicyanoperylene-3,4:9,10-bis(dicarboximide)] | 10^6-10^8 | 0.07-0.2 cm^2/Vs | 10^8 | 0.1-0.4 cm^2/Vs
2 | CC(C)CC(C)N1C(=O)c2ccc3c4c(C#N)cc5c6c(ccc(c7c(C#N)cc(c2c37)C1=O)c64)C(=O)N(C(C)CC(C)C)C5=O (centres unmarked) [PDI1M3MB-CN2, N,N′-bis(1,3-dimethylbutyl)-1,7-dicyanoperylene-3,4:9,10-bis(dicarboximide)] | 10^7 | 0.03-0.2 cm^2/Vs | 10^7 | 0.3-0.5 cm^2/Vs
3 | CCCCC(C)CN1C(=O)c2ccc3c4c(C#N)cc5c6c(ccc(c7c(C#N)cc(c2c37)C1=O)c64)C(=O)N(CC(C)CCCC)C5=O (centres unmarked) [PDI2MH-CN2, N,N′-bis(2-methylhexyl)-1,7-dicyanoperylene-3,4:9,10-bis(dicarboximide), reference compound] | 10^6 | 0.01 cm^2/Vs | 10^7 | 0.1-0.3 cm^2/Vs
4 | CCC(C)N1C(=O)c2ccc3c4c(C#N)cc5c6c(ccc(c7c(C#N)cc(c2c37)C1=O)c64)C(=O)N(C(C)CC)C5=O (centres unmarked) [PDI1MPr-CN2, N,N′-bis(1-methylpropyl)-1,7-dicyanoperylene-3,4:9,10-bis(dicarboximide)] | 10^5-10^7 | 0.02-0.1 cm^2/Vs | 10^7 | 0.2-0.8 cm^2/Vs
5 | CCCC(C)N1C(=O)c2ccc3c4c(C#N)cc5c6c(ccc(c7c(C#N)cc(c2c37)C1=O)c64)C(=O)N(C(C)CCC)C5=O (centres unmarked) [PDI1MB-CN2, N,N′-bis(1-methylbutyl)-1,7-dicyanoperylene-3,4:9,10-bis(dicarboximide)] | 10^5-10^7 | 0.03-0.1 cm^2/Vs | 10^9-10^10 | 0.8-2.0 cm^2/Vs
6 | CCCCC(CC)CN1C(=O)c2ccc3c4c(C#N)cc5c6c(ccc(c7c(C#N)cc(c2c37)C1=O)c64)C(=O)N(CC(CC)CCCC)C5=O (centres unmarked) [PDI2EH-CN2, N,N′-bis(2-ethylhexyl)-1,7-dicyanoperylene-3,4:9,10-bis(dicarboximide), reference compound] | 10^6-10^7 | 0.2-0.3 cm^2/Vs | 10^7-10^8 | 0.1-0.3 cm^2/Vs
7 | CCCC(CC)N1C(=O)c2ccc3c4c(C#N)cc5c6c(ccc(c7c(C#N)cc(c2c37)C1=O)c64)C(=O)N(C(CC)CCC)C5=O (centres unmarked) [PDI1EB-CN2, N,N′-bis(1-ethylbutyl)-1,7-dicyanoperylene-3,4:9,10-bis(dicarboximide)] | 10^5 | 0.005-0.01 cm^2/Vs | 10^8 | 0.1-0.5 cm^2/Vs
8 | CCCCCCCCN1C(=O)c2ccc3c4c(C#N)cc5c6c(ccc(c7c(C#N)cc(c2c37)C1=O)c64)C(=O)N(CCCCCCCC)C5=O [PDI8-CN2, N,N′-Bis(4-n-octyl)-1,7-dicyanoperylene-3,4:9,10-bis(dicarboximide), reference compound] | 10^2-10^4 | 10^−5-10^−3 cm^2/Vs | 10^4-10^5 | 0.01-0.2 cm^2/Vs
9 | CC(C)=CCC[C@H](C)CCN1C(=O)c2ccc3c4c(C#N)cc5c6c(ccc(c7c(C#N)cc(c2c37)C1=O)c64)C(=O)N(CC[C@@H](C)CCC=C(C)C)C5=O [PDICitr-CN2, N,N′-bis[(3S)-3,7-dimethyl-6-octenyl]-1,7-dicyanoperylene-3,4:9,10-bis(dicarboximide), reference compound] | 10^1-10^2 | 10^−4-10^−3 cm^2/Vs | 10^3-10^5 | 0.01-0.1 cm^2/Vs
10 | CCC(CC)N1C(=O)c2ccc3c4c(C#N)cc5c6c(ccc(c7c(C#N)cc(c2c37)C1=O)c64)C(=O)N(C(CC)CC)C5=O [PDI1EPr-CN2, N,N′-bis(1-ethylpropyl)-1,7-dicyanoperylene-3,4:9,10-bis(dicarboximide)] | 10^5 | 0.005-0.01 cm^2/Vs | 10^7 | 0.01-0.1 cm^2/Vs
11 | CCCCC(C)N1C(=O)c2ccc3c4c(C#N)cc5c6c(ccc(c7c(C#N)cc(c2c37)C1=O)c64)C(=O)N(C(C)CCCC)C5=O (centres unmarked) [PDI1MP-CN2, N,N′-bis(1-methylpentyl)-1,7-dicyanoperylene-3,4:9,10-bis(dicarboximide)] | 10^5-10^8 | 0.03-0.2 cm^2/Vs | 10^8 | 0.3-0.8 cm^2/Vs

From patent US8404844B2, “Perylene semiconductors and methods of preparation and use thereof” (BASF SE, priority 2008, dated 2013)
